# Primary screen of a compound library

By UniProt entry, the sequences of proteins in these tests, tags left out. Residues count along the entry.
UniProt A4I591, 1-473: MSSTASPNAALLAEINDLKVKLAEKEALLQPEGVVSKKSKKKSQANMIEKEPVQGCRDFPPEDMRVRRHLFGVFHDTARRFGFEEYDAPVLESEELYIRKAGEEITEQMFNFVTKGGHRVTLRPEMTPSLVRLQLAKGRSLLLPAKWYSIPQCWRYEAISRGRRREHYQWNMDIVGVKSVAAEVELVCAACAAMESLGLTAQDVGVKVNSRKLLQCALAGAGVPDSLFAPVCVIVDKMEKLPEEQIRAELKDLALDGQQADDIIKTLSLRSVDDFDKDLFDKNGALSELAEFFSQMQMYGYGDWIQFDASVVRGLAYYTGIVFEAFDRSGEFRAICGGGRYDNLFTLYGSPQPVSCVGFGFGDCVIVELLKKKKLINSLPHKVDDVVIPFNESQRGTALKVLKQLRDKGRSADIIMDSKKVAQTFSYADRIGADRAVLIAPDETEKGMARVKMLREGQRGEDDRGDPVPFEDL

A: 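Assay of Toxoplasma gondii numbers, read through their beta-galactosidase reporter with a colour substrate. Tested at 10 µM. Higher reads as fewer parasites (inferred from which compounds were picked for retests). About 67,000 compounds were tested under these conditions; 0.38% (about 260) showed 50% or more at least once.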
B: 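Histidine-tRNA ligase, Leishmania infantum (UniProt A4I591). Enzyme assay of histidyl-tRNA synthetase; the read-out is not stated. Concentration: 30 µM. Higher reads as stronger inhibition (inferred: compounds with an IC50 in retests scored well above the rest). The assay is labelled LdHisRS but filed under L. infantum. About 69,000 compounds were tested under these conditions; 0.6% (about 410) showed 50% or more at least once.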

Results are given as percent effect.
How 0% and 100% were set is not recorded. Most values in the screen are low, and negative values occur.
The compounds are a random part of those screened.

* CSCCCN1CC[C@@]2(O)CCN(c3ncccn3)C[C@H]2C1 | B: 6.557%
* O=C(NCc1nc(NC2CCCC2)c2cc(Cl)ccc2n1)c1ccoc1 | A: -0.05764%; B: 17.2%
* CC(C)(NC(=O)c1scnc1Cl)c1ccccc1 | A: -20.85%; B: 8.036%
* CSc1ccc(NCc2csc(CS(C)(=O)=O)n2)cc1F | A: 9.173%; B: 10.96%
* COc1ccc(CCN2CCN(C(=O)c3scnc3C)CC2)cc1 | A: 3.871%; B: 20%
* Cc1nc(CN2C(=O)CCC23CCN(Cc2cccn2C)CC3)cs1.O=C(O)C(F)(F)F.O=C(O)C(F)(F)F | A: 2.699%
* Cn1cc(C(=O)NCc2ccc(OC3CCCCC3)nc2)ccc1=O | A: 8.95%; B: 5.181%
* CCc1nccn1C1CCCN(C(=O)CCc2nc(C(C)C)no2)C1 (centres unmarked) | A: -6.972%; B: 0%
* CC(NC(=O)CN1CCN(Cc2ccc(Br)s2)CC1)c1ccccc1 (centres unmarked) | A: -2.05%; B: 23.94%
* O=C(NCc1cccc(N2CC=CC2)c1)NCC(F)(F)F | A: -51.39%; B: 15.62%
* Cc1cc(NCc2ccc(CS(N)(=O)=O)cc2)nc(C)n1 | A: 7.979%; B: 10.2%
* CNC(=O)c1ccc(CN(C(C)C)C(C)C)o1 | B: 1.961%
* CC(C)N(C)Cc1nnc2n1CCN(CC1CC1)CC2.O=C(O)C(F)(F)F.O=C(O)C(F)(F)F | A: 3.339%
* CC(=O)N1CCCN(C(=O)NCCOc2ccc3c(c2)CCC3)CC1 | A: 6.025%; B: 4.63%
* Cc1ccccc1CC(C)(C)NC(=O)c1cccc(OCC(N)=O)c1 | A: -1.89%; B: 50.65%
* Cc1ccccc1C1(CNC(=O)NCCc2nnc3n2CCC3)CC1 | A: -1.659%; B: 8.571%
* O=C(C1CCC2(CCN(c3ncccn3)CC2)CO1)N1CCCC1 (centres unmarked) | A: -4.115%; B: -2.632%
* CN(C)S(=O)(=O)N1CC[C@H]2OCC[C@@]2(COc2cccnc2)C1 | B: 7.895%
* CC(CNC(=O)N1CCNC(=O)CC1)Cc1cccs1 (centres unmarked) | A: -0.8661%; B: 0%
* c1coc(CN2CCn3c(CN4CCOCC4)nnc3C2)c1 | A: 4.961%; B: 20%
* CCc1nc(C2CCCN2C(=O)CCc2c(C)noc2Cl)no1 (centres unmarked) | A: 9.535%; B: 11.61%
* CN(C)CCN1CCO[C@H]2CN(C(=O)C3CCOCC3)C[C@H]21 | B: 8.547%
* CCCN1CCC(c2nc3ccc(-c4cccc(OC)c4)cn3n2)CC1 | B: 21.78%
* CCS(=O)(=O)N1CCC2(CN(C(=O)c3cn(C)cn3)C2)C1 | A: -6.575%; B: 2%
* Cc1nn(C)c(N(C)C)c1CNCCNS(C)(=O)=O | A: -7.744%; B: 12.77%
* c1ccc(-c2cccc(-c3ccn(CCN4CCCCC4)n3)c2)nc1 | A: 1.217%; B: 16.39%
* CCCN1CCCn2nc(CNC(=O)CN(C)C3CCCC3)cc2C1 | A: -5.967%; B: 15.38%
* CC(O)CN1CCN(Cc2csc(-c3cnn(C)c3)n2)CC1 (centres unmarked) | A: 2.47%; B: 12.5%
* Cc1cc(C)c2ncn(CC(C)(C)CO)c(=O)c2c1 | A: 1.256%; B: 10.83%
* O=C1CC(CNc2cncc(Br)c2)c2ccccc2N1 (centres unmarked) | A: 17.55%; B: 29.58%
* O=C(O)C1(Cc2ccccc2Cl)CCN(c2ncnc3[nH]ccc23)CC1 | A: -15.27%; B: 8.197%
* CCCc1cc(N2CCC(NC3CCS(=O)(=O)C3)CC2)nc(C)n1 (centres unmarked) | A: -29.65%; B: 14.17%
* COCC(=O)NCc1cc(=O)n2c(n1)CN(Cc1ccoc1)CCC2 | A: -7.727%; B: 24.47%
* COc1cc(COCC2CCN(Cc3cccnc3)CC2)cc(OC)c1 | B: 9.333%
* CNC(=O)CN1CCOCC2(CCCN(CCc3ccccc3)C2)C1.O=C(O)C(F)(F)F.O=C(O)C(F)(F)F (centres unmarked) | A: -10.52%
* CC(C)(C)CCNC(=O)c1ccc(Cl)c(NS(C)(=O)=O)c1 | A: -1.853%; B: 17.78%
* CCN1C(=O)C2(CCN(CCN(C)C)CC2)c2ccccc21.O=C(O)C(F)(F)F.O=C(O)C(F)(F)F | A: 17.25%
* Cn1cnnc1CCNC(=O)c1ccccc1OC1CCC1 | A: 3.599%; B: -3.175%
* CN(CC(=O)N1CCCC1c1noc(C2CC2)n1)S(C)(=O)=O (centres unmarked) | B: 12.9%
* CN1CCN(CCCNC(=O)CCc2nc3cc(Br)cnc3[nH]2)CC1 | A: -18.6%; B: 15.79%

The first 4 entries again:

{"compound": "CSCCCN1CC[C@@]2(O)CCN(c3ncccn3)C[C@H]2C1", "B": 6.557}
{"compound": "O=C(NCc1nc(NC2CCCC2)c2cc(Cl)ccc2n1)c1ccoc1", "A": -0.05764, "B": 17.2}
{"compound": "CC(C)(NC(=O)c1scnc1Cl)c1ccccc1", "A": -20.85, "B": 8.036}
{"compound": "CSc1ccc(NCc2csc(CS(C)(=O)=O)n2)cc1F", "A": 9.173, "B": 10.96}

Measurements from “University of Dundee, Small-Polar-MMV Screening Library” (2021), ChEMBL document CHEMBL3988442.